Record: PubChem BioAssay AID1259405 (NCATS, 2018)
Shown is one part, drawn at random, of about 50,000 reagents tested. About 4,000 of them (8%) were called active. 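Mouse siRNA library applied to hamster cells; one well for each siRNA.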 Reagents against one gene are numbered here. Reagent sequences are not shown.

Test: 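Mouse-designed siRNAs used to find CHO productivity engineering targets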 (primary screen)
Cell system: Chinese hamster CHO-K1 ovary cells with stable secreted eGFP expression
Reagent: single siRNA against mouse genes, 0.8 pmol siRNA per well (2 µl of 400 nM stock)
Time to read-out: 3 days
Read-out: 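Per-well intracellular GFP measured by laser scanning cytometry, plus viability from ATP luminescence, each relative to plate median of non-targeting control wells, in %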
Scale: GFP, % of control: higher = more GFP per well, higher productivity; viability (ATP), % of control: higher = more viable cells (more ATP)
Active means: 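a knock-down is called active if GFP reaches 120% or more of non-targeting control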

After knock-down of Slc6a14 #1, the screen gave GFP, % of control 85.2; viability (ATP), % of control 74.3; inactive.
After knock-down of Slc6a14 #2, the record shows GFP, % of control 66.7; viability (ATP), % of control 76.3; inactive.
For Slc6a14 #3 the deposit lists GFP, % of control 60.8; viability (ATP), % of control 67.8; inactive.
With knock-down of Mvp #1 the results were GFP, % of control 61.8; viability (ATP), % of control 62.8; inactive.
Mvp #2 showed GFP, % of control 70.4; viability (ATP), % of control 86.3; inactive.
Against Mvp #3 the deposit lists GFP, % of control 63; viability (ATP), % of control 75; inactive.
Thy1 #1 showed GFP, % of control 92.9; viability (ATP), % of control 71.7; inactive.
With knock-down of Thy1 #2 the results were GFP, % of control 95; viability (ATP), % of control 86.3; inactive.
With knock-down of Thy1 #3, the record shows GFP, % of control 62.7; viability (ATP), % of control 110; inactive.
With knock-down of Frmd4a #1, the screen gave GFP, % of control 65.5; viability (ATP), % of control 59.9; inactive.
Against Frmd4a #2, the values are GFP, % of control 75.8; viability (ATP), % of control 76.3; inactive.
For Frmd4a #3, the entry reads GFP, % of control 59.4; viability (ATP), % of control 51.2; inactive.
Against Pcdhb14 #1, the entry reads GFP, % of control 82.1; viability (ATP), % of control 93.6; inactive.
Pcdhb14 #2 scored GFP, % of control 81.7; viability (ATP), % of control 78.3; inactive.
After knock-down of Lcorl #1 the results were GFP, % of control 89.8; viability (ATP), % of control 80.7; inactive.
With knock-down of Lcorl #2, the screen gave GFP, % of control 65.7; viability (ATP), % of control 72.1; inactive.
Lcorl #3 showed GFP, % of control 76.5; viability (ATP), % of control 81.1; inactive.
After knock-down of Ubd #1, the screen gave GFP, % of control 33.2; viability (ATP), % of control 45.2; inactive.
Ubd #2 showed GFP, % of control 70.8; viability (ATP), % of control 50.2; inactive.
With knock-down of Ubd #3, the record shows GFP, % of control 70.4; viability (ATP), % of control 49; inactive.
Against Phf8 #1 the deposit lists GFP, % of control 57.4; viability (ATP), % of control 59.1; inactive.
Phf8 #2 scored GFP, % of control 58.5; viability (ATP), % of control 67.9; inactive.
Phf8 #3 showed GFP, % of control 69.9; viability (ATP), % of control 143; inactive.
Against Tnip3 #1, the entry reads GFP, % of control 63.6; viability (ATP), % of control 56.9; inactive.
Tnip3 #2 gave GFP, % of control 68; viability (ATP), % of control 65.7; inactive.
With knock-down of Tnip3 #3, the screen gave GFP, % of control 45.2; viability (ATP), % of control 59.4; inactive.
For Or6k14 #1, the entry reads GFP, % of control 86.3; viability (ATP), % of control 25.6; inactive.
Or6k14 #2 showed GFP, % of control 64.3; viability (ATP), % of control 81.6; inactive.
Against Or6k14 #3, the values are GFP, % of control 44.9; viability (ATP), % of control 41.6; inactive.
With knock-down of Ccdc51 #1 the results were GFP, % of control 28.7; viability (ATP), % of control 33; inactive.
After knock-down of Ccdc51 #2 the results were GFP, % of control 139; viability (ATP), % of control 107; active.
Against Ccdc51 #3, the entry reads GFP, % of control 63.4; viability (ATP), % of control 81.2; inactive.
Depletion of Psme1 #1 resulted in: GFP, % of control 60.6; viability (ATP), % of control 55.3; inactive.
For Psme1 #2, the values are GFP, % of control 74.8; viability (ATP), % of control 60.5; inactive.
Psme1 #3 showed GFP, % of control 108; viability (ATP), % of control 72; inactive.
For Edc4 #1, the values are GFP, % of control 77.1; viability (ATP), % of control 56.6; inactive.
Knock-down of Edc4 #2 gave: GFP, % of control 77.3; viability (ATP), % of control 88.2; inactive.
For Edc4 #3 the deposit lists GFP, % of control 76.4; viability (ATP), % of control 88; inactive.
Against Or10d1c #1 the deposit lists GFP, % of control 87.7; viability (ATP), % of control 54.1; inactive.
For Or10d1c #2, the entry reads GFP, % of control 97.6; viability (ATP), % of control 54.2; inactive.
Or10d1c #3 scored GFP, % of control 62.3; viability (ATP), % of control 56.2; inactive.
